Measured values: publication doi:10.1101/2023.08.22.554276
These are yes or no findings as the source states them, for the method shown. Binding seen in cells or lysates may run through a third protein. Some results given as binding are weak or reduced against the parent protein; the word gives no strength.

The chains behind the UniProt entries cited, without tags or fusion partners.
UniProt Q62420: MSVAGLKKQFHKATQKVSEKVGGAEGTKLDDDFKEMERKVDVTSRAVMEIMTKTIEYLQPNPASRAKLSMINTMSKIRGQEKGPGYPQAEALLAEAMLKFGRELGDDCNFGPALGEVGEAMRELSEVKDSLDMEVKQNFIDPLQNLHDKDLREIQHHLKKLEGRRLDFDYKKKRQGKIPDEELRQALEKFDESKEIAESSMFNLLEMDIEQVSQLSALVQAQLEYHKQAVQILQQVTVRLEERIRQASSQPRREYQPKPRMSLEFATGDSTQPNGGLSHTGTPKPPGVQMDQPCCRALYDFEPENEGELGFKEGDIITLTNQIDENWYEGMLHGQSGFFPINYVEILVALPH
UniProt Q15811: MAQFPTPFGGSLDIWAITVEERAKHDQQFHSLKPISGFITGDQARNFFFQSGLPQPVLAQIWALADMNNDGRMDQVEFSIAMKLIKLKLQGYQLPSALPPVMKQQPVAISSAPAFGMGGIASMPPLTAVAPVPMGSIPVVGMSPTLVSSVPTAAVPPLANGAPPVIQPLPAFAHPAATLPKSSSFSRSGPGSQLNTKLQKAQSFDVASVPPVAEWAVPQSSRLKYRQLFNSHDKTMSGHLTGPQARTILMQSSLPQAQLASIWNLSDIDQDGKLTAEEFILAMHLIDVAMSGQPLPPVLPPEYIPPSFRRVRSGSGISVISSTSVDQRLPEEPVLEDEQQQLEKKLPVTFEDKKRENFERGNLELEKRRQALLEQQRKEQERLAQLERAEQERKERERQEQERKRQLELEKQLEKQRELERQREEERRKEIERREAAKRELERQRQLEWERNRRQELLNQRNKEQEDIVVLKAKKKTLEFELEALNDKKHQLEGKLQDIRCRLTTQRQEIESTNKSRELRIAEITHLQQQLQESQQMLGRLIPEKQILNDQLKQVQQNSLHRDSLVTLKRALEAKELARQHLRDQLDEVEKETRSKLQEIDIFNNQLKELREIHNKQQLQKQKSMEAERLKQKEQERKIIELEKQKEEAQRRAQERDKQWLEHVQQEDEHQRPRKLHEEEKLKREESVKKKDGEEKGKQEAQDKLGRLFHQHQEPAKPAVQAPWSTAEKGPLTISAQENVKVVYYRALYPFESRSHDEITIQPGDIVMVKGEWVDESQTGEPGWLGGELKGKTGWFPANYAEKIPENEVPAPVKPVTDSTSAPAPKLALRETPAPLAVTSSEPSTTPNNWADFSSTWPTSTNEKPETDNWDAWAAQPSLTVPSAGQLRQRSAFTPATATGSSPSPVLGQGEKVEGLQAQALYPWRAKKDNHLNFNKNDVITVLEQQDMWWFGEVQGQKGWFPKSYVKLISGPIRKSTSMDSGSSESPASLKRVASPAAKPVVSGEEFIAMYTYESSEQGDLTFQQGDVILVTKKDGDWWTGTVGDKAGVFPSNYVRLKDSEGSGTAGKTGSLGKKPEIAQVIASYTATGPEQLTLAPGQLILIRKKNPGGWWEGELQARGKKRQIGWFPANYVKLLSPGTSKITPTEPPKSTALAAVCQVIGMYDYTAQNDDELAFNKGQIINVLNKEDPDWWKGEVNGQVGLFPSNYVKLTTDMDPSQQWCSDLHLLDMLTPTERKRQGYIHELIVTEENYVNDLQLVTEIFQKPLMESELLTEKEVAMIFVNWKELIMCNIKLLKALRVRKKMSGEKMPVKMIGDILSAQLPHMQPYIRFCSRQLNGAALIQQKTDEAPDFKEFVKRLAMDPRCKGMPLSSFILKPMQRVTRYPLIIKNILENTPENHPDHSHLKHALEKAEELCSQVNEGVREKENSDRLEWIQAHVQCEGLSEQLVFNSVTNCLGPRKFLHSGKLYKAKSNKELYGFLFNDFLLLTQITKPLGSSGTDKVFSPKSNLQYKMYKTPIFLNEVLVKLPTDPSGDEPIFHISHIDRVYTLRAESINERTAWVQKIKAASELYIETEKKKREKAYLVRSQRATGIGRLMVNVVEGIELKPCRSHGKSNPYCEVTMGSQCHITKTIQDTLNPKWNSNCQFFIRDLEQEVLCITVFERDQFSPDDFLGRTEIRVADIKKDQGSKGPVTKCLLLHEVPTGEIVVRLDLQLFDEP

Target: Endophilin A1 (mouse (endogenous in hippocampal neurons)) (UniProt Q62420)
Test: co-IP; anti-Endophilin 1 guinea pig polyclonal antibody on Dynabeads; lysates of Itsn1 KO mouse hippocampal cultures infected with lentiviral rescue constructs (DIV 7, lysed DIV 14); lysis buffer 20 mM HEPES pH 7.4, 50 mM KCl, 2 mM MgCl2, 1% Triton X-100; blot with anti-Itsn1

In the case of “Intersectin-1 Long (L), full length, wild-type rescue construct (from UniProt Q15811 1-1721)”, the binding was “binds”.
